The structures given here were assigned with low confidence; some may be wrong.
Experiments:
[1] = target: human A2A adenosine receptor (Homo sapiens, UniProt P29274); test: [3H]ZM241385 binding to human A2A receptors expressed in CHO cells; settings: read-out: Ki, [3H]ZM241385 binding to human A2A receptors expressed in CHO cells; geometric mean (95% confidence interval); >1000 = no appreciable binding
[2] = target: human A3 adenosine receptor (Homo sapiens, UniProt P0DMS8); test: [3H]MRE3008F20 binding to human A3 receptors expressed in CHO cells; settings: read-out: Ki, [3H]MRE3008F20 binding to human A3 receptors expressed in CHO cells; geometric mean (95% confidence interval); >1000 = no appreciable binding
[3] = target: human A1 adenosine receptor (Homo sapiens, UniProt P30542); test: [3H]DPCPX binding to human A1 receptors expressed in CHO cells; settings: read-out: Ki, [3H]DPCPX binding to human A1 receptors expressed in CHO cells; geometric mean (95% confidence interval); >1000 = no appreciable binding
[4] = target: human A2B adenosine receptor (Homo sapiens, UniProt P29275); test: [3H]DPCPX binding to human A2B receptors expressed in HEK293 cells; settings: read-out: Ki, [3H]DPCPX binding to human A2B receptors expressed in HEK293 cells; geometric mean (95% confidence interval); >1000 = no appreciable binding

Chains of the proteins cited; added tags and fusions are not shown. Lines headed by an entry give the natural chain unless they say otherwise; changes in a name come on top.
UniProt P0DMS8, whole entry: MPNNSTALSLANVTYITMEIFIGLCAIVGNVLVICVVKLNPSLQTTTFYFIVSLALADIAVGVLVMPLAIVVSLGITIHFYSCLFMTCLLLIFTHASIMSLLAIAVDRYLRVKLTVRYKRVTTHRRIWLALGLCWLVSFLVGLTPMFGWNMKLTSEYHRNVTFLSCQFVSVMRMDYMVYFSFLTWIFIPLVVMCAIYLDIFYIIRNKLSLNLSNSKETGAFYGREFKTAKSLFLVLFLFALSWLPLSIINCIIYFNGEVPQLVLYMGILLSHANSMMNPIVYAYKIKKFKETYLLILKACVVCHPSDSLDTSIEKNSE
UniProt P30542, whole entry: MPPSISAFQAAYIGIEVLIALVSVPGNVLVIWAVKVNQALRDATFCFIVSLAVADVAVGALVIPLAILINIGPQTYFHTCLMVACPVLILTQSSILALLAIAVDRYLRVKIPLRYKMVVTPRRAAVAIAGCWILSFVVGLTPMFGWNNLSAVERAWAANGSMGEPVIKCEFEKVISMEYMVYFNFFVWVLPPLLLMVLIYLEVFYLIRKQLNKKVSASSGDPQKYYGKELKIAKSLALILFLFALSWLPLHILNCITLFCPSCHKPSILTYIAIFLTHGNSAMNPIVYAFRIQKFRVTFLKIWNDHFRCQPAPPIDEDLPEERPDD
UniProt P29275, whole entry: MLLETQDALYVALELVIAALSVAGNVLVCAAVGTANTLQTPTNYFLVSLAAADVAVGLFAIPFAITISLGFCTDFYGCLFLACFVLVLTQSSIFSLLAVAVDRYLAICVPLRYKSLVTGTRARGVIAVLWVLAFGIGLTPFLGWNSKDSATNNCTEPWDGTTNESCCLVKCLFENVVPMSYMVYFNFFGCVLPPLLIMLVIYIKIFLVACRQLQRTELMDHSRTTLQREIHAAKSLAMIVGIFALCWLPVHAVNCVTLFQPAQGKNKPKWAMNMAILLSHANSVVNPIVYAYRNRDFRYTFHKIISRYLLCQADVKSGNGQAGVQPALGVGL

Measured: Ki

CCCn1c(=O)c2[nH]c(-c3cc(OCC(=O)Nc4ccc5c(c4)OCO5)no3)nc2n(CCC)c1=O
> 1000 nM: [1] | [2] | [3]

CCCn1c(=O)c2[nH]c(-c3cc(COC(=O)c4ccccc4)on3)nc2n(CCC)c1=O
> 1000 nM: all assays above
